# Measurements reported in PubChem BioAssay AID1224826 (NIAID, 2016).
# Aim: 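Regulators of Tlr4 signalling leading to Tnf-alpha expression in macrophages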 (primary screen)
# Cell system: RAW264.7 G9 macrophages from mouse bearing reporters for p65 (GFP) and the Tnf promoter (mCherry)
# Reagents: siRNA pool against mouse genes, 100 nM
# Duration: 16 h of LPS stimulation, after 2 days of siRNA transfection
# Conditions: bacterial lipopolysaccharide (Salmonella minnesota R595), 10 ng/ml
# Measured: 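Imaged Tnf reporter mCherry in nuclei, minus background, normalised per plate to the median and expressed as robust z-scores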
# Reading the numbers: Tnf reporter robust z-score: higher = stronger Tnf promoter reporter signal after LPS; Tnf reporter intensity: higher = stronger Tnf promoter reporter signal
# Active means: 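a well counts as active at a score of -1.3 or below (Tlr4 knock-down control median) or above 3 (raised signal); controls and wells holding fewer than 50 cells are excluded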
# Meaning of the calls: active = Tnf reporter clearly lowered or raised; inactive = no clear change in Tnf reporter
# Shown is a random part of about 17,000 reagents. About 1,110 of them (6.6%) were called active. 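Active means lowered or raised reporter signal; replicate intensities are raw and not normalised per plate.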
Target gene,PubChem SID,Tnf reporter robust z-score,fewer than 50 cells in well,"Tnf reporter intensity, replicate 1","Tnf reporter intensity, replicate 2",Call
Chia1,SID315475787,1.75,enough cells in well,266,234,inactive
Cavin1,SID315468825,1.51,enough cells in well,200,119,inactive
Eif6,SID315467520,6.33,enough cells in well,614,404,active
Nfatc1,SID315468141,-1.34,enough cells in well,151,76.6,active
Ndufa8,SID315473518,-0.38,enough cells in well,249,63.9,inactive
Mmgt1,SID315479312,-0.05,enough cells in well,149,149,inactive
Foxe1,SID315476932,0.04,enough cells in well,276,225,inactive
Bend3,SID315481646,-0.01,enough cells in well,240,153,inactive
Elapor2,SID315478855,1.6,enough cells in well,342,222,inactive
Sdf2l1,SID315472068,0.94,enough cells in well,168,168,inactive
Atp2a1,SID315465549,,fewer than 50 cells per well; well left out of calls,77.1,112,inactive
Or7g29,SID315480190,,fewer than 50 cells per well; well left out of calls,62.9,51.8,inactive
Fshb,SID315466751,-0.71,enough cells in well,214,161,inactive
Lck,SID315467736,-0.41,enough cells in well,164,143,inactive
Ctnnd1,SID315465783,0.75,enough cells in well,331,238,inactive
Ptpn11,SID315468795,-0.16,enough cells in well,233,182,inactive
Tef,SID315469656,0.85,enough cells in well,308,167,inactive
Hibadh,SID315471928,0.99,enough cells in well,329,218,inactive
D430041D05Rik,SID315479577,0.15,enough cells in well,224,261,inactive
Lamc2,SID315467725,1.3,enough cells in well,395,180,inactive
Apaf1,SID315465447,-0.17,enough cells in well,139,182,inactive
Ccnb1,SID315480789,1.75,enough cells in well,384,338,inactive
Abcd1,SID315465382,-0.33,enough cells in well,139,154,inactive
Hsd3b1,SID315467314,-1.01,enough cells in well,153,128,inactive

3 entries from above, set out differently.
{"Target gene": "Fshb", "PubChem SID": "SID315466751", "Tnf reporter robust z-score": -0.71, "fewer than 50 cells in well": "enough cells in well", "Tnf reporter intensity, replicate 1": 214, "Tnf reporter intensity, replicate 2": 161, "Call": "inactive"}
{"Target gene": "Lck", "PubChem SID": "SID315467736", "Tnf reporter robust z-score": -0.41, "fewer than 50 cells in well": "enough cells in well", "Tnf reporter intensity, replicate 1": 164, "Tnf reporter intensity, replicate 2": 143, "Call": "inactive"}
{"Target gene": "Ctnnd1", "PubChem SID": "SID315465783", "Tnf reporter robust z-score": 0.75, "fewer than 50 cells in well": "enough cells in well", "Tnf reporter intensity, replicate 1": 331, "Tnf reporter intensity, replicate 2": 238, "Call": "inactive"}
